Test results as given in the supplement of paper PMC10849652.
The other results are listed elsewhere or left out.

The chains behind the UniProt entries cited, without tags or fusion partners. Where a name states a change or a piece, a line headed by the entry shows the natural chain unless it says otherwise.
UniProt Q8N0W3: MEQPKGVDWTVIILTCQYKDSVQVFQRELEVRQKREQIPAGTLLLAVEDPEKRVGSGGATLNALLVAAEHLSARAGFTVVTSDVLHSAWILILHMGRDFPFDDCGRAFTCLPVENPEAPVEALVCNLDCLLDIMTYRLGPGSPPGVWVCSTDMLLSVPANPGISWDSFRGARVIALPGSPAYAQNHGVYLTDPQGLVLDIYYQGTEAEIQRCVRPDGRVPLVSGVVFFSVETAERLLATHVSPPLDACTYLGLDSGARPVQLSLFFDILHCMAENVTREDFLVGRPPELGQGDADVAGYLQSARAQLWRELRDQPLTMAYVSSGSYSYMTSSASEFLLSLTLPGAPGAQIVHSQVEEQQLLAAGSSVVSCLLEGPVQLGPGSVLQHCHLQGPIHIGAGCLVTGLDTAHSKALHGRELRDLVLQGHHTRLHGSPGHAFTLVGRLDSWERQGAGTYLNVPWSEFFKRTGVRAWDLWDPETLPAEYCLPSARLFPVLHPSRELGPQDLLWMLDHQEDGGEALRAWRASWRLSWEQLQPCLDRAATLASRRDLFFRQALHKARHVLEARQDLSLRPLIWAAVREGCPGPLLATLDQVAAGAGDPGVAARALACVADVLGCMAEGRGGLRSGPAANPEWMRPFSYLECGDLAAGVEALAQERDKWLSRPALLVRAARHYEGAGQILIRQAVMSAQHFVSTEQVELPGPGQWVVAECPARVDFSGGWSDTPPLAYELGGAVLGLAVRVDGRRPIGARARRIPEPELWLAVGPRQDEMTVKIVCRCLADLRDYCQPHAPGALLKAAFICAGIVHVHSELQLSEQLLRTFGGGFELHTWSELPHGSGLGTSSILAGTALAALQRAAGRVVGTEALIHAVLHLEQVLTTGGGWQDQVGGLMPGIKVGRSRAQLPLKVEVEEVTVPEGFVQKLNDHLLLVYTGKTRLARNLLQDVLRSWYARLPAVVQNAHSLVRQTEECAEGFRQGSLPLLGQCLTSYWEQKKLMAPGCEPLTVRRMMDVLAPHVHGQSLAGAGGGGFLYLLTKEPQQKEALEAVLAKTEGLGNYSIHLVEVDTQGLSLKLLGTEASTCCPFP
UniProt Q5HYJ3: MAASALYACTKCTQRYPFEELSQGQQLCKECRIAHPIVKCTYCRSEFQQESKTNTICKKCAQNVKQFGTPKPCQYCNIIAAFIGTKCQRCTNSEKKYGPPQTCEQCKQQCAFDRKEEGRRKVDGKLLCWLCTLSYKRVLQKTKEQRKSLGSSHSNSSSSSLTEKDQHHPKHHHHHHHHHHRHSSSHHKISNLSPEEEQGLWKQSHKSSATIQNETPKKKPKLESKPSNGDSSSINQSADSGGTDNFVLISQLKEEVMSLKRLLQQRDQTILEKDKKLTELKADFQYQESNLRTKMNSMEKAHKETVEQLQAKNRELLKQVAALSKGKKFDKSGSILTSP
UniProt Q96AC1: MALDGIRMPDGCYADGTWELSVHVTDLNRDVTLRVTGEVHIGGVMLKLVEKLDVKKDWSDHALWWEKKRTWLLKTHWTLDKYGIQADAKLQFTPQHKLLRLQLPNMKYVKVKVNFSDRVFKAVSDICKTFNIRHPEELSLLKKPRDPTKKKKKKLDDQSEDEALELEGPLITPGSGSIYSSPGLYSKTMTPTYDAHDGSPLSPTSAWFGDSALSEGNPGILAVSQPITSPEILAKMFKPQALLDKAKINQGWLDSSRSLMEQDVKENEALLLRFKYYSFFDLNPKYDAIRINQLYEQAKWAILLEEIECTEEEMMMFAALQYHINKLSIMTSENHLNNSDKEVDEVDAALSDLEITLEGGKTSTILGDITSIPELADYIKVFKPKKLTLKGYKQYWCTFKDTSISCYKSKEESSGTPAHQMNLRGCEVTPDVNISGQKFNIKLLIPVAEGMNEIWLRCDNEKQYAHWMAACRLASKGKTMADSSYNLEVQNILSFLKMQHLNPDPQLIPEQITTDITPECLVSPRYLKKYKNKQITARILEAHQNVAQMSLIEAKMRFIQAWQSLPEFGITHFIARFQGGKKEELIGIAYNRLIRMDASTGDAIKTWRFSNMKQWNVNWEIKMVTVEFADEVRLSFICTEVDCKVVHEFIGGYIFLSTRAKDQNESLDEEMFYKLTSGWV
UniProt Q9HA64: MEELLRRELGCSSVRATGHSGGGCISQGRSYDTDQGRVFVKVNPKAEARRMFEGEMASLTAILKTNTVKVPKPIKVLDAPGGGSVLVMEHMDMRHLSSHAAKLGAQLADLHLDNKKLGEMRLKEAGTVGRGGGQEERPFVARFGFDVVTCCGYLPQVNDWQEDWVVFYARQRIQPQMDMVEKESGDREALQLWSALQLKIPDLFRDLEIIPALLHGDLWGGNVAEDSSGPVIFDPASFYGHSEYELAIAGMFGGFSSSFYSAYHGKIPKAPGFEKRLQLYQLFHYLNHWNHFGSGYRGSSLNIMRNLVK
UniProt Q6UN15: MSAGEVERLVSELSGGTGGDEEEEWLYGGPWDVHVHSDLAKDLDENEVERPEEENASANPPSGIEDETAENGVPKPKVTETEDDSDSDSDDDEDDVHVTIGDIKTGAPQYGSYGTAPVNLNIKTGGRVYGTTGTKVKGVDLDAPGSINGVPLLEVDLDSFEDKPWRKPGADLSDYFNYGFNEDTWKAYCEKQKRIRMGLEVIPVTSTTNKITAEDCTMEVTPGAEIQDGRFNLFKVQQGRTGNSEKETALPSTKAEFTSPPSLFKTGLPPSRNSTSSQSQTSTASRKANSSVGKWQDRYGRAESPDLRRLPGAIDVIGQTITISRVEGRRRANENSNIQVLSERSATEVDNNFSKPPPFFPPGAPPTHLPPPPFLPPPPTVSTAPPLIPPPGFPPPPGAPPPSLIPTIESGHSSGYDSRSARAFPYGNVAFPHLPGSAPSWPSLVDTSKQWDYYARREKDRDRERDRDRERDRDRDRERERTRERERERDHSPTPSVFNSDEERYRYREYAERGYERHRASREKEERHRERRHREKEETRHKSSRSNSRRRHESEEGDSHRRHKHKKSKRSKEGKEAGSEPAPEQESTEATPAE
UniProt Q96CP2: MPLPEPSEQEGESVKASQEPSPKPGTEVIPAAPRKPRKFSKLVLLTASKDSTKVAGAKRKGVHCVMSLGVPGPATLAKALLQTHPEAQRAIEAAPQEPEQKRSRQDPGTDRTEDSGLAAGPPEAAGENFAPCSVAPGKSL
UniProt P10109: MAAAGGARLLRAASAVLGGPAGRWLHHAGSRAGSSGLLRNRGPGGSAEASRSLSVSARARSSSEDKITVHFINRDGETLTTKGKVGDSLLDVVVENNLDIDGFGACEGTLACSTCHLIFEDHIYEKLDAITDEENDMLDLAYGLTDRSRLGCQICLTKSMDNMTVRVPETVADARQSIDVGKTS
UniProt Q13045: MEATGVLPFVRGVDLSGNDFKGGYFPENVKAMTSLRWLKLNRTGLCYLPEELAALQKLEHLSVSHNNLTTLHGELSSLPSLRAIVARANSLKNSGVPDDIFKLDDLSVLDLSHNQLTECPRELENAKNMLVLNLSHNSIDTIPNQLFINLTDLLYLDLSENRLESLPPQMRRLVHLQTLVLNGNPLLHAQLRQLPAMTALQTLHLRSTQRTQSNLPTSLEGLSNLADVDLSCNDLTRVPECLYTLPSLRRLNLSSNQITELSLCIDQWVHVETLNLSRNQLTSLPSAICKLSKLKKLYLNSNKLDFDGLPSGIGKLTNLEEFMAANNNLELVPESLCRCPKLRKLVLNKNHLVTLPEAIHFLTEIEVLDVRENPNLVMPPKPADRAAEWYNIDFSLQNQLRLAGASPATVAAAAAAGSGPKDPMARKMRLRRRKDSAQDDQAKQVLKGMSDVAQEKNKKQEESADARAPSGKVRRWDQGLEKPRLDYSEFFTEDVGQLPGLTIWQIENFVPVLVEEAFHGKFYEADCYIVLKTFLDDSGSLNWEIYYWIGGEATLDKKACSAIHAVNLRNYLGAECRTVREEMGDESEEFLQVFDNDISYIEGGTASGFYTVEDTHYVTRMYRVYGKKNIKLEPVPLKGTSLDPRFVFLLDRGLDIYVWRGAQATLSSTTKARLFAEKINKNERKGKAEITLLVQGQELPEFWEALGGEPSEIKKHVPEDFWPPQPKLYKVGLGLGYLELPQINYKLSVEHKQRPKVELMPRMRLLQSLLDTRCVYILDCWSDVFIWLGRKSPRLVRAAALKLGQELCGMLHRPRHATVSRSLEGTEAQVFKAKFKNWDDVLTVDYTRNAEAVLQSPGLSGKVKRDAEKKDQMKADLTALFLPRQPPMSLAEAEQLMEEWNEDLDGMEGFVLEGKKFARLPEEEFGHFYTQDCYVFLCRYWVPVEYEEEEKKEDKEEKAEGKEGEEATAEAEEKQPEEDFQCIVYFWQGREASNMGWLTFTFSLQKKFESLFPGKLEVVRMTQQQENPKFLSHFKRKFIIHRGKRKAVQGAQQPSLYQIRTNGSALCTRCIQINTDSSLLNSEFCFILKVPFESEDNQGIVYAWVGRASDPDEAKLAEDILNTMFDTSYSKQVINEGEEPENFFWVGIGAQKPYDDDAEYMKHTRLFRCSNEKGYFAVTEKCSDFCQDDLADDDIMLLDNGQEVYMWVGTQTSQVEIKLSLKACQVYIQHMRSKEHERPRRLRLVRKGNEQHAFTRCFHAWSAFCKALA
UniProt Q9Y421: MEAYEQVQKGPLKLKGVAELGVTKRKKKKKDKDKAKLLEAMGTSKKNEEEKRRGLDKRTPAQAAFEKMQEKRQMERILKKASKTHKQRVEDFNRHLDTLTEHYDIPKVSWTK
UniProt O95302: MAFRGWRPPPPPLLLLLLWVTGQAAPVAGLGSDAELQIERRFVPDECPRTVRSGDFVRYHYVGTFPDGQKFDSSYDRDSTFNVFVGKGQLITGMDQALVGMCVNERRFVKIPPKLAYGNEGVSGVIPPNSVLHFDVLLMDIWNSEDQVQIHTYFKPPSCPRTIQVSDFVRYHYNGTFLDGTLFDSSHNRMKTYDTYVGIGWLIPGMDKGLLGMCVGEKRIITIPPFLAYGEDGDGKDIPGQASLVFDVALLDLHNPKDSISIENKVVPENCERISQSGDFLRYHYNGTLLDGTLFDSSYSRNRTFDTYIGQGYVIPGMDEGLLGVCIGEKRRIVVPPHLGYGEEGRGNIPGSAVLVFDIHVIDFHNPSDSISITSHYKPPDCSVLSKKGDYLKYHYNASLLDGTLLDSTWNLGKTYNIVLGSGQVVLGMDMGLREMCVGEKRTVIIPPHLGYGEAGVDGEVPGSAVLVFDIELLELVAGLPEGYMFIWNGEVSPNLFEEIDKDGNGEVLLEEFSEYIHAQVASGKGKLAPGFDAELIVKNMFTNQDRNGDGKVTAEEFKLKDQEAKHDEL
UniProt Q8WVX9: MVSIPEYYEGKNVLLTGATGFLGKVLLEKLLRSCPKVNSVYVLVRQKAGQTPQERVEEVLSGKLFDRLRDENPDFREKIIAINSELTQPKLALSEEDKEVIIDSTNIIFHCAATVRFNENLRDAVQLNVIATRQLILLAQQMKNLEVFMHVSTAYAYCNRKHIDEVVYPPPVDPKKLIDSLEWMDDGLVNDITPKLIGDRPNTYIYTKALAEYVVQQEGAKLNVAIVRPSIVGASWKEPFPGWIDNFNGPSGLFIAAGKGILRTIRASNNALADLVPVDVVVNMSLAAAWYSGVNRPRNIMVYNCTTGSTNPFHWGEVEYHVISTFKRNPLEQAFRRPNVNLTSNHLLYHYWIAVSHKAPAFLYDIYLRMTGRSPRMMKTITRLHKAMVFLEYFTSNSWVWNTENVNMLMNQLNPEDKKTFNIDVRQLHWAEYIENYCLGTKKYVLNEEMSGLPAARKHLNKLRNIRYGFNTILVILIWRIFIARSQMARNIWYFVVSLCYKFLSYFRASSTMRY
UniProt P23142: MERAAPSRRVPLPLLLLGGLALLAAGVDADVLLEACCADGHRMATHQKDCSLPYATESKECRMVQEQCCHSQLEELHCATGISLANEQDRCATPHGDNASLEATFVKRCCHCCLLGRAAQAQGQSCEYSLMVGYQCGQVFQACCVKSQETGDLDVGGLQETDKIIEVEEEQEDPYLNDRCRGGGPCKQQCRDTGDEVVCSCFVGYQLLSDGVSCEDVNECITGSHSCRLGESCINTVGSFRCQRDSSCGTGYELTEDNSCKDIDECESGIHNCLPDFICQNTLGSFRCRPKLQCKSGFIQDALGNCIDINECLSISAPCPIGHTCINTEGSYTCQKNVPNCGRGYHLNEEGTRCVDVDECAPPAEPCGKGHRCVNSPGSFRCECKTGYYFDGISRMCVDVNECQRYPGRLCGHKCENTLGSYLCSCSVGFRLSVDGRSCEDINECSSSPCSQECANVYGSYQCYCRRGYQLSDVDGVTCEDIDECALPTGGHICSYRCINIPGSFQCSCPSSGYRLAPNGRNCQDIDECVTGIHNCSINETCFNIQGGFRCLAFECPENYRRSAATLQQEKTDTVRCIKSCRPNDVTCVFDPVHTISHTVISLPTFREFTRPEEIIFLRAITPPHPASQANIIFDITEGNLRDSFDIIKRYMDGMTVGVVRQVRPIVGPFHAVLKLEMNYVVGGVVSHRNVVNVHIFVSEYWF

The targets below were run with Cc1cc(Nc2cc(N3CCN(C)CC3)nc(Sc3ccc(NC(=O)C4CC4)cc3)n2)n[nH]1 [tozasertib] (assay: log2 fold change, soluble protein after heating vs DMSO (PISA); higher = thermal stabilisation; K562 cells, 10 uM, 30 min; active = over 0.2 and 3.5 SD of the protein, either way, in both replicates (recomputed)).
How it was run: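 K562 cells at 2×10^6 cells/mL were given 10 μM compound for 30 min. Aliquots then went through 3 min of heating across 48°C-58°C, were pooled, and were extracted in PBS with 0.5% NP-40 at 4°C, and the supernatant after 21,000xg for 90 min was quantified by TMTpro 16plex LC-MS/MS with channel sums equalised. Thermal stability relative to control samples, from duplicates, is given as log2 fold change.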

log2 fold change, inactive:
FBXO22 (UniProt Q8NEZ5) 0.014
FNBP4 isoform 2 (UniProt Q8N3X1) 0.002
FGFR1OP (UniProt O95684) -0.005
FCSK isoform 2 (UniProt Q8N0W3) -0.018
FAM76B (UniProt Q5HYJ3) 0.012
FLVCR1 (UniProt Q9Y5Y0) -0.049
FAM98A (UniProt Q8NCA5) 0.009
FERMT2 isoform 3 (UniProt Q96AC1) 0.177
FN3K (UniProt Q9H479) -0.027
FEM1B (UniProt Q9UK73) -0.047
FN1 isoform 1 (UniProt P02751) -0.02
FN3KRP (UniProt Q9HA64) -0.038
FIP1L1 (UniProt Q6UN15) -0.067
FLYWCH2 (UniProt Q96CP2) 0.031
FDX1 (UniProt P10109) 0.011
FLOT2 (UniProt Q14254) 0.1
FAM98B (UniProt Q52LJ0) -0.073
FLOT1 (UniProt O75955) 0.091
FBXO5 (UniProt Q9UKT4) 0.012
FLT4 (UniProt P35916) 0.029
FLAD1 (UniProt Q8NFF5) -0.002
FLII (UniProt Q13045) 0.032
FLNB isoform 8 (UniProt O75369) 0.049
FLNC (UniProt Q14315) 0.044
FCGR2C (UniProt P31995) -0.068
FKBP5 (UniProt Q13451) 0.073
FKBP2 (UniProt P26885) 0.063
FHL2 (UniProt Q14192) 0.047
FAM210A (UniProt Q96ND0) -0.02
FAM32A (UniProt Q9Y421) -0.011
FARSB (UniProt Q9NSD9) 0.015
FAM78A (UniProt Q5JUQ0) 0.008
FKBP9 (UniProt O95302) 0.022
FAR1 (UniProt Q8WVX9) 0.012
FBXO30 (UniProt Q8TB52) -0.004
FKBP15 (UniProt Q5T1M5) 0.042
FBLN1 (UniProt P23142) -0.092

Looked up one by one from the entries so far (2):
log2 fold change, inactive:
FLVCR1 (UniProt Q9Y5Y0) -0.049
FGFR1OP (UniProt O95684) -0.005
